Data: paper PMC10205867
No constants are given. Whether binding was seen depends on the method and setting. Binding seen in cells or lysates may run through a third protein. Some entries that bind do so weakly or less than the wild type. Tags and fused reporters may be left off the sequences shown.

By UniProt entry, the sequences of proteins in these tests, tags left out. Residues count along the entry.
UniProt O75460, residues 19-977: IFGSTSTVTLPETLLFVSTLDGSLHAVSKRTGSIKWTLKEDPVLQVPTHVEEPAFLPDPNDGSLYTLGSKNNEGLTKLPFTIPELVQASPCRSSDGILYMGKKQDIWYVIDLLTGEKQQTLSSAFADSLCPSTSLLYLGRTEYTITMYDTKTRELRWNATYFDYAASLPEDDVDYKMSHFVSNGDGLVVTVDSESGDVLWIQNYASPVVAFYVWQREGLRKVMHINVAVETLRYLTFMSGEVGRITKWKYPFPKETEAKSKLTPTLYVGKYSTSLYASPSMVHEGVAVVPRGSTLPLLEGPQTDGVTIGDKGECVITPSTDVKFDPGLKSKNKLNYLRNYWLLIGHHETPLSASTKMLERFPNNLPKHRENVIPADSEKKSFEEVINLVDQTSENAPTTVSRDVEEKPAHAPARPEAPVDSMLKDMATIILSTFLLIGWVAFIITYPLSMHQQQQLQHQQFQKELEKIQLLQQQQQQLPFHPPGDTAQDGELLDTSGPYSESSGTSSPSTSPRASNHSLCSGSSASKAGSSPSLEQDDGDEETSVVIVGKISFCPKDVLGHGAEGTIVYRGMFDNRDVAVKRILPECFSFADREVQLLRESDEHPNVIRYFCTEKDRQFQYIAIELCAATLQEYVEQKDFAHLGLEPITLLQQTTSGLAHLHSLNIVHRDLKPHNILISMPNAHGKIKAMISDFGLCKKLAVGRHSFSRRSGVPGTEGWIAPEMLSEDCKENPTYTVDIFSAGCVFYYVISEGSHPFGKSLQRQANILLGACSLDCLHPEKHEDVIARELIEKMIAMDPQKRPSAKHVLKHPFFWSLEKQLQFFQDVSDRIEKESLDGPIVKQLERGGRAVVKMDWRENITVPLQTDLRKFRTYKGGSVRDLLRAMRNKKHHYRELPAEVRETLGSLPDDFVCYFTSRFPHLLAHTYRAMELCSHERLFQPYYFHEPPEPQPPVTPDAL

Target: T1, Flag-tagged PARP16 (Poly (ADP-ribose) polymerases 16) (rat) (UniProt Q5U2Q4)
T1 sequence: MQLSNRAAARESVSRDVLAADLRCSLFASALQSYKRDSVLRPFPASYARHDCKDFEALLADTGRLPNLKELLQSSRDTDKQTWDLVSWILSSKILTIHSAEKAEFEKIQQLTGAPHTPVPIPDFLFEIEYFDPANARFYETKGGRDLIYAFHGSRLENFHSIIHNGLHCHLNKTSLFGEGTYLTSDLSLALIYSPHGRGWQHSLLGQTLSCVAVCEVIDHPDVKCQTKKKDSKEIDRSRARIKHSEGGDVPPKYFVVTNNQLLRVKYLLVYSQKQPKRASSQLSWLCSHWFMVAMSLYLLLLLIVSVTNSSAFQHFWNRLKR
Assay: co-IP; lysate (IP-RIPA buffer) of 293T cells transfected by Flag-tagged PARP16 lentiviruses; 1 mg total protein with 3-5 μg antibody (Flag) overnight at 4 °C, Protein A/G PLUS-Agarose 2 h at RT, washed 4 times; western blot for IRE1α

Inositol Requiring Enzyme 1α (IRE1α) (from UniProt O75460 19-977)
binding: binds
